The text below walks through data of PubChem BioAssay AID248 (DTP/NCI, 2004).

The assay has as its system L1210 leukemia ip in BDF1 mice, survival T/C. Put plainly: NCI In Vivo Anticancer Drug Screen. Data for tumor model L1210 Leukemia (intraperitoneal) in B6D2F1 (BDF1) mice. The conditions noted are these: T/C endpoint: mean survival time, higher T/C = longer survival.
[1] abbreviates: dose: 400.0 mg/kg/injection, schedule: Q01DX009 (ip), vehicle: Klucel (hydroxypropylcellulose) (HPC).
[2] abbreviates: dose: 100.0 mg/kg/injection, schedule: Q01DX009 (ip), vehicle: Klucel (hydroxypropylcellulose) (HPC).
The mark [3] stands for this setting: dose: 200.0 mg/kg/injection, schedule: Q01DX001 (ip), vehicle: carboxymethylcellulose (CMC).
[4] abbreviates: dose: 400.0 mg/kg/injection, schedule: Q01DX001 (ip), vehicle: carboxymethylcellulose (CMC).
The mark [5] stands for this setting: dose: 200.0 mg/kg/injection, schedule: Q01DX009 (ip), vehicle: saline with Tween-80.
The mark [6] stands for this setting: dose: 400.0 mg/kg/injection, schedule: Q01DX009 (ip), vehicle: saline with Tween-80.
The mark [7] stands for this setting: dose: 100.0 mg/kg/injection, schedule: Q01DX009 (ip), vehicle: saline with Tween-80.
[8] abbreviates: dose: 50.0 mg/kg/injection, schedule: Q04DX003 (ip), vehicle: saline.
[9] abbreviates: dose: 100.0 mg/kg/injection, schedule: Q04DX003 (ip), vehicle: saline.
[10] abbreviates: dose: 200.0 mg/kg/injection, schedule: Q04DX003 (ip), vehicle: saline.
Where [11] appears, read: dose: 400.0 mg/kg/injection, schedule: Q04DX003 (ip), vehicle: saline.
Setting [12] is: dose: 200.0 mg/kg/injection, schedule: Q04DX003 (ip), vehicle: saline with Tween-80.
Setting [13] is: dose: 400.0 mg/kg/injection, schedule: Q04DX003 (ip), vehicle: saline with Tween-80.

The list is a part of this screen's results and no random one: it is rich in T/C values a quarter to a half above the control, in often repeated tests (any T/C) and in doses without a T/C. Further doses and runs are listed elsewhere. T/C gives the treated animals as a percentage of the vehicle group. Some entries give survivors of the animals treated and no T/C: the source files T/C as zero there, which appears to mark a toxic dose or a test without result, not a measured value. Some survivor counts are full or nearly so, which does not show that the dose was tolerated: survival well below the control is almost never listed, so the zero probably covers shortened survival too. Counts of survivors are from the toxicity check (mostly the fifth day) where no day follows; animals may have died later. Schedules are NCI's codes, taken here to give the interval after Q, in days (D) or hours (H), and the number of doses after X. For survival time, the PubChem record calls one and a half times the control and up active, and a quarter to a half above the control has no call in these data; cut-offs in other NCI protocols can differ.

With `CCCCCCCCCCCCCCCCCCNC(=O)Cc1ccc(N(CCCl)CCCl)cc1`, the T/C under setting [1] was 130 % of control.
For the compound `Cc1ccc(NC(=O)Nc2cccc3ccccc23)c(C)c1`, under setting [2], the survivor count is 6 of 6.
With `CN1CCN(c2ccc([N+](=O)[O-])c3no[n+]([O-])c23)CC1`, the survivor count is, setting by setting: (dose: 100.0 mg/kg/injection, schedule: Q04DX002 (ip), vehicle: Klucel (hydroxypropylcellulose) (HPC)) 3 of 3; (dose: 200.0 mg/kg/injection, schedule: Q04DX002 (ip), vehicle: Klucel (hydroxypropylcellulose) (HPC)) 1 of 3; (dose: 400.0 mg/kg/injection, schedule: Q04DX002 (ip), vehicle: Klucel (hydroxypropylcellulose) (HPC)) 0 of 3.
For `O=[N+]([O-])c1cccc(N(CCF)CCF)c1`, the survivor count (dose: 40.0 mg/kg/injection, schedule: Q01DX001 (ip), vehicle: carboxymethylcellulose (CMC)) was 1 of 4; the survivor count (dose: 50.0 mg/kg/injection, schedule: Q01DX001 (ip), vehicle: carboxymethylcellulose (CMC)) is 0 of 4; the survivor count (dose: 80.0 mg/kg/injection, schedule: Q01DX001 (ip), vehicle: carboxymethylcellulose (CMC)) is on record as 0 of 4; the survivor count (dose: 100.0 mg/kg/injection, schedule: Q01DX001 (ip), vehicle: carboxymethylcellulose (CMC)) was 0 of 4; the survivor count under setting [3] is reported as 0 of 4; the survivor count under setting [4] is given as 0 of 4.
As to `CC[C@@H](O)C[C@H]1CCC[C@@]2(C[C@@H]3OC(=O)/C=C/[C@@](C)(O)[C@@H](O)[C@H](C)[C@@H](O)[C@H](OC4CCC(N(C)C)C(C)O4)[C@@H](O)[C@](C)(O)CCCCC/C=C/[C@@H]4CC(C)(C)O[C@@]4(O)C[C@H](O2)[C@H]3C)O1` (some centres not stated), the survivor count (dose: 0.25 mg/kg/injection, schedule: Q01DX009 (ip), vehicle: saline with Tween-80) is reported as 0 of 6; the survivor count (dose: 0.5 mg/kg/injection, schedule: Q01DX009 (ip), vehicle: saline with Tween-80) is 0 of 6; the survivor count (dose: 1.0 mg/kg/injection, schedule: Q01DX009 (ip), vehicle: saline with Tween-80) is 0 of 6; the survivor count (dose: 1.45 mg/kg/injection, schedule: Q04DX003 (ip), vehicle: saline with Tween-80) was 5 of 6; the survivor count (dose: 2.2 mg/kg/injection, schedule: Q04DX003 (ip), vehicle: saline with Tween-80) is reported as 0 of 6; the survivor count (dose: 3.3 mg/kg/injection, schedule: Q04DX003 (ip), vehicle: saline with Tween-80) is on record as 0 of 6.
Regarding `CCN1CCC2=C(CCCC2O)C1` (configuration not stated), the survivor count (dose: 300.0 mg/kg/injection, schedule: Q01DX001 (ip), vehicle: steroid suspending solution) is reported as 3 of 6.
Consider `Cc1cc(C(=O)O)ccc1S(=O)(=O)F`, for which the survivor count is listed as 3 of 6 under setting [5] and 3 of 6 under setting [6].
For `CC(C)C[CH2][Pb]([Cl])([CH2]CC(C)C)[CH2]CC(C)C`, the survivor count is 3 of 3 (dose: 0.1 mg/kg/injection, schedule: Q04DX002 (ip), vehicle: other); 3 of 3 (dose: 0.4 mg/kg/injection, schedule: Q04DX002 (ip), vehicle: other); 2 of 6 (dose: 0.4 mg/kg/injection, schedule: Q04DX003 (ip), vehicle: other); 0 of 6 (dose: 0.8 mg/kg/injection, schedule: Q04DX003 (ip), vehicle: other); 2 of 6 (dose: 1.56 mg/kg/injection, schedule: Q04DX003 (ip), vehicle: other); 1 of 6 (dose: 3.13 mg/kg/injection, schedule: Q04DX003 (ip), vehicle: other). For the same compound, the survivor count reads like this: (dose: 6.25 mg/kg/injection, schedule: Q04DX003 (ip), vehicle: other) 0 of 6; (dose: 12.5 mg/kg/injection, schedule: Q04DX003 (ip), vehicle: other) 0 of 6; (dose: 25.0 mg/kg/injection, schedule: Q04DX003 (ip), vehicle: other) 0 of 6.
As to `CCCCCCCCCCCCCCCCCC(=O)NCC#CCN1CCCC1`, the survivor count is, setting by setting: (dose: 100.0 mg/kg/injection, schedule: Q01DX001 (ip), vehicle: saline) 2 of 4; (dose: 200.0 mg/kg/injection, schedule: Q01DX001 (ip), vehicle: saline) 2 of 4.
On to `CN(C)CCCNC(=O)Nc1ccccc1`, for which the survivor count runs as follows: under setting [1], 0 of 6; (dose: 400.0 mg/kg/injection, schedule: Q04DX003 (ip), vehicle: Klucel (hydroxypropylcellulose) (HPC)) 2 of 6.
Turning to `C[n+]1cccc(SC2CCC3CC4CC3C2C4)c1` (configuration not stated), the survivor count reads like this: under setting [7], 0 of 3; under setting [5], 0 of 3.
For `CSc1ncnc2c1ncn2C1CCCC1`, the survivor count under setting [4] is 0 of 4.
Regarding `CC(CN(C)C)CN1c2ccccc2Sc2ccc(C(F)(F)F)cc21` (configuration not stated), the survivor count is on record as 3 of 6 (dose: 25.0 mg/kg/injection, schedule: Q01DX009 (ip), vehicle: saline); 1 of 4 under setting [8]; 0 of 4 under setting [9]; 0 of 4 under setting [10]; 0 of 4 under setting [11].
In the case of `O=[N+]([O-])c1ccc(N/N=C/C(Br)(Br)Br)c([N+](=O)[O-])c1`, the survivor count under setting [3] is listed as 0 of 4 and the survivor count under setting [4] was 1 of 4.
Turning to `CCCCCCCCCCCCOC(=O)OCCCCCCCCCCCC`, the survivor count under setting [6] is 6 of 6.
As to `CCOP(=O)(OCC)OCCCN(CC)CC`, the survivor count is, setting by setting: (dose: 400.0 mg/kg/injection, schedule: Q01DX009 (ip), vehicle: saline) 3 of 6; under setting [11], 4 of 6.
Consider `O=C1c2cccc3c([N+](=O)[O-])ccc(c23)C(=O)N1CCCN1CCOCC1`, for which the survivor count was 4 of 6 (dose: 200.0 mg/kg/injection, schedule: Q01DX009 (ip), vehicle: Klucel (hydroxypropylcellulose) (HPC)) and 2 of 6 under setting [1].
With `CNC(=S)C(=S)NC`, for the setting “dose: 50.0 mg/kg/injection, schedule: Q04DX003 (ip), vehicle: saline with Tween-80”, the survivor count is given as 5 of 6.
On to `CCCCCCCCCC/C=C/c1c(C)[nH]c2ccccc2c1=O`, for which the survivor count was 0 of 6 (dose: 200.0 mg/kg/injection, schedule: Q01DX009 (ip), vehicle: alcohol) and 0 of 6 (dose: 400.0 mg/kg/injection, schedule: Q01DX009 (ip), vehicle: alcohol).
On to `Nc1nc(N)n(Cc2ccc3c(c2)OCO3)n1`, for which the survivor count under setting [7] is given as 6 of 6.
For the compound `O=C(C[n+]1cccc(Cl)c1)c1ccccc1`, the survivor count is recorded as 0 of 6 (dose: 12.5 mg/kg/injection, schedule: Q04DX003 (ip), vehicle: saline); 0 of 6 (dose: 25.0 mg/kg/injection, schedule: Q04DX003 (ip), vehicle: saline); 0 of 6 under setting [8]; 0 of 6 under setting [9]; 0 of 6 under setting [10]; 0 of 6 under setting [11].
With `COc1cc(C(=Nc2ccccc2)C(=Nc2ccccc2)c2cc(OC)c(OC)c(OC)c2)cc(OC)c1OC`, the T/C under setting [2] is 131 % of control.
For `O=C1C(Cl)=C(Cl)C(=O)N1c1ccc(Cl)c(Cl)c1`, the survivor count under setting [6] was 1 of 6.
With `O=[N+]([O-])C1CCC2CCC3CCCC1C32` (configuration not stated), under “dose: 200.0 mg/kg/injection, schedule: Q04DX002 (ip), vehicle: saline with Tween-80”, the survivor count is on record as 3 of 3.
On to `ClCC(Cl)CN1CCCCC1` (configuration not stated), for which the survivor count runs as follows: under setting [12], 5 of 6; under setting [13], 3 of 6.
Turning to `O=C1CNC(c2ccccc2)c2cc(Cl)ccc2N1` (configuration not stated), the survivor count (dose: 50.0 mg/kg/injection, schedule: Q01DX009 (ip), vehicle: Klucel (hydroxypropylcellulose) (HPC)) is listed as 6 of 6 and the survivor count under setting [1] was 6 of 6.
For the compound `Cc1cc2c(cc1C)C(=O)C(N1CCN(C)CC1)CCC2` (configuration not stated), the survivor count by setting is: under setting [12], 3 of 6; under setting [13], 0 of 6.
